Laboratory results reported in patent publication US5597685A, “Color photographic element having improved image stability” (Eastman Kodak Company, priority 1995, dated 1997).

Columns and labels:
[1] = Extent of reaction between SI-20 and M-41 in mixed dispersions by HPLC: loss of M-41; conditions: mixed with equal weight of SI-20 dispersion, 40° C., 26 hours, listed substance is image stabilizer in M-41 dispersion
Procedure: (§1) A dispersion of the epoxide compound SI-20 was prepared in the following manner.
(§2) 2.0 grams of SI-20 was combined with 2.0 grams of poly(vinylpyrrolidone) (Kollidon 25 grade from BASF), 0.11 grams of sodium dodecyl sulfate and 20.04 grams of distilled water to constitute the slurry. This was combined with 80.57 grams of zirconia beads and placed on a Sweco mill to grind for five days. The slurry was then separated from the beads by filtration. An aqueous solution of gelatin was prepared by combining 6.88 grams of a 24% solution of Type IV gelatin with 8.33 grams of distilled water. The pH of the gelatin solution was adjusted to 5.0. The latter was then combined with 25 grams of the ground slurry to constitute the dispersion.
A dispersion of the magenta coupler M-41 was prepared in the following manner. 14.73 grams of tri(2-ethylhexyl) phosphate was heated as coupler solvent to a temperature of 120° C. and combined with 11.35 grams of image stabilizer STG-A1 and 3.4 grams of ST-1. This was then combined with 12.75 grams of coupler M-41 to constitute the oil phase. The aqueous phase was prepared by mixing 88.5 grams of a 24% w/w solution of Type IV gelatin with 21.2 grams of a 10% w/w solution of the surfactant Alkanol XC and 273 grams of distilled water. The latter was then heated to 70° C. The oil phase was then combined with the aqueous phase and the mixture passed twice through a microfluidizer at a pressure of 10,000 psi at 70° C. to obtain the dispersion. [drawing 35]
A dispersion of M-41 was also prepared with the image stabilizer ST-2 (control) in place of STG-A1. [drawing 36]
A given weight of dispersion of M-41 was then mixed with an equal weight of dispersion of epoxide SI-20 and the mixture was incubated in a water bath at 40° C. After 26 hours the mixture was analyzed by high perfomance liquid chromatography (HPLC) to determine the extent of reaction between SI-20 and M-41. The results are as follows:
Additional dispersions of M-41 were prepared according to the method of Example 1 but using image stabilizers ST-4 and ST-5 as controls in place of STG-A1. [drawing 38]
As before, a given weight of dispersion of M-41 was mixed with an equal weight of dispersion of epoxide SI-20 and the mixture was then incubated in a water bath at 40° C. After 26 hours the mixture was analyzed by high performance liquid chromatography (HPLC) to determine the extent of reaction between SI-20 and M-41.

[2] = Extent of reaction between SI-20 and M-41 in mixed dispersions by HPLC: loss of SI-20; conditions: mixed with equal weight of M-41 dispersion, 40° C., 26 hours, listed substance is image stabilizer in M-41 dispersion
Procedure: as §1, §2
A dispersion of the magenta coupler M-41 was prepared in the following manner. 14.73 grams of tri(2-ethylhexyl) phosphate was heated as coupler solvent to a temperature of 120° C. and combined with 11.35 grams of image stabilizer STG-A1 and 3.4 grams of ST-1. This was then combined with 12.75 grams of coupler M-41 to constitute the oil phase. […]
A given weight of dispersion of M-41 was then mixed with an equal weight of dispersion of epoxide SI-20 and the mixture was incubated in a water bath at 40° C. After 26 hours the mixture was analyzed by high perfomance liquid chromatography (HPLC) to determine the extent of reaction between SI-20 and M-41.

| Compound | % loss M-41 [1] [%] | % loss SI-20 [2] [%] |
| --- | --- | --- |
| CCCCOc1ccc(C(C)(C)CC(C)(C)C)cc1N(CCCC)CCCC [ST-2] | 38.1 | 11.1 |
| CCCCCCCCc1cc2c(cc1O)C(C(C)C)CC(C)(C)O2 (stereo not drawn) [ST-4] | 59.0 | – |
| CCCOc1cc2c(cc1OCCC)C1(CC2(C)C)CC(C)(C)c2cc(OCCC)c(OCCC)cc21 [ST-5] | 34.0 | – |
| CCCCC(CC)COc1ccc(N2CCS(=O)(=O)CC2)cc1 (stereo not drawn) [STG-A1] | 89.5 | 31.4 |
